From patent publication US20060189539A1, “Novel GnRH analogues with antitumour effects and pharmaceutical compositions thereof” (priority 1994, published 2006)
Some entries share one result that the patent states for a list of compounds.

Assays:
[1] = system: MDA-MB-231 human mammary carcinoma cell line; test: Inhibition of colony formation (dose-survival), Example 48; format: cell-based; settings: 50 μM
Excerpt: MCF-7 human mammary carcinoma cell line was stabilized in 1973 by Soule et al. from the pleural fluid of a patient suffering from mammary carcinoma. MDA-MB-231 human mammary carcinoma cell line was isolated and stabilized by Cailleau et al. in 1974 similarly from pleural fluid. Both cell lines grow in monolayer. MCF-7 and MDA-MB-231 human mammary carcinoma cell lines are maintained in plastic flasks (Greiner), in Dulbecco-modified Eagle-MEM (DMEM, GIBCO) liquid nutrient medium containing 10% of fetal calf serum. MCF-7 cell line is estradiol receptor (ER)-positive containing proteins specifically binding GnRH. Thus, it represents, a useful model system for investigating the direct effect of GnRH mediated by the GnRH receptor. Being ER-negative and GnRH receptor-positive, MDA-MB-231 cell line is similarly suitable to study the direct effect of GnRH. […]
The examination gives accurate information about the cell-damaging effect of the substance tested as a function of varying doses. The treatment was carried out once; the colonies formed from the surviving cells were counted after 8-12 days. […] In the case of a dose-response investigation, colonies containing less than 15 cells were not counted. […] The treatment was once carried out 24 hours after setting, then the colonies formed were counted after 8-12 days. […]

[2] = system: human tumour cell lines; test: Inhibition of cell division, Example 49, cell line not given; format: cell-based

Row | Compound | % Inhibition of colony formation ([1]; listed as Example 31, 50 µM) | % Inhibition of colony formation ([1]; listed as Example 32, 50 µM) | Proliferation-inhibiting effect [2]
1 | NCCCC[C@H](NC(=O)[C@H](Cc1c[nH]c2ccccc12)NC(=O)[C@H](Cc1c[nH]cn1)NC(=O)[C@@H]1CCC(=O)N1)C(=O)N[C@@H](Cc1c[nH]cn1)C(=O)N[C@@H](CC(=O)O)C(=O)N[C@@H](Cc1c[nH]c2ccccc12)C(=O)N[C@@H](CCCCN)C(=O)N1CCC[C@H]1C(=O)NCC(N)=O [Compound 6, Lys^4-GnRH-III] | 35-42% |  | 
2 | [Lys(ε-Ac)]^4-GnRH-III [Compound 7] |  | 35-42% | 27-31%
